This note sets out measurements from patent publication US20060235215A1 (published 2006).

What all share (experiment): yeast two-hybrid
For assay [1], the target named is T1, OsSGT1, bait fragment aa 200-368 (Oryza sativa, UniProt Q0JL44 200-367).
T1 construct: bait; also called PN20285
T1 sequence: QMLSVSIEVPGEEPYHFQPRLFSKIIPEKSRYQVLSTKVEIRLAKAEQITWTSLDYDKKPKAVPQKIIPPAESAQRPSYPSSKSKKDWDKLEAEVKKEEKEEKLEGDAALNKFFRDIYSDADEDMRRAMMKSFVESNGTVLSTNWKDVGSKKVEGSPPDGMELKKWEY
As to the method:
(§1) Yeast carrying the target gene construct was combined with yeast carrying the activation domain library. The two yeast strains mated to form diploid yeast and were plated on media that selected for expression of one or more Ga14p-responsive reporter genes. Thus, both hybrid proteins (i.e., the target “bait” protein and the activation domain “prey” protein) were expressed in a yeast reporter strain where an interaction between the test proteins results in transcription of the reporter genes […]. Colonies that arose after incubation were selected for further characterization. The activation domain plasmid was isolated from each colony obtained in the two-hybrid search. The sequence of the insert in this construct was obtained by sequence analysis (e.g., Sanger's dideoxy nucleotide chain termination method; see Ausubel et al., 1988, including updates up to 2002). Thus, the identity of positives obtained from these searches was determined by sequence analysis against proprietary and public (e.g., GENBANK®) nucleic acid and protein databases.
The rice SGT1 protein shares 74 and 75% amino acid sequence similarity with two Arabidopsis thaliana SGT1 homologs and 45% amino acid sequence similarity with Saccharomyces cerevisiae SGT1. […]

The target in assay [2] is T2, O. sativa Cellulose Synthase Catalytic Subunit, RSW1-Like, bait fragment aa 316-583 (Oryza sativa, UniProt A2Y0X2 316-583).
T2 construct: bait; also called OsCS; PN19707
T2 sequence: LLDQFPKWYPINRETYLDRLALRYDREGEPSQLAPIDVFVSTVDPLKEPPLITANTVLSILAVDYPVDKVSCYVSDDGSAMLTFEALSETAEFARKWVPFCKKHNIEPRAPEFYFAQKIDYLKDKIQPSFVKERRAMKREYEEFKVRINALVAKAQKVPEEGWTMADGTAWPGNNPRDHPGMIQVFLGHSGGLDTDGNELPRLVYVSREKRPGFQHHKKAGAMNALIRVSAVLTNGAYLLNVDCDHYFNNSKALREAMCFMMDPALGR
As to the method: as §1
A second bait, namely O. sativa Cellulose Synthase Catalytic Subunit, RSW1-Like (OSCS; PN19707; GENBANK® Accession No. AF030052), was also used.

Assay [3] addresses T3, Ring zinc finger protein PN20115, bait fragment aa 5-140 (Oryza sativa).
T3 construct: bait
T3 chain: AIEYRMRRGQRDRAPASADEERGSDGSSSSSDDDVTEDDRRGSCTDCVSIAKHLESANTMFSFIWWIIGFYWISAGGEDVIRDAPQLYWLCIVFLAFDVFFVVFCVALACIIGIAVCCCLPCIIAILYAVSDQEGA

B1: L-aspartase-like protein-like PN24060, prey clone aa 176-315 (other)
chain: EKGMKEAENVVEAKSSQLESLVSHEGEKTPRPQAVAEGSSKVVPTPVEYTVNDIIDGKTVNAVEGLKVYEGLVNENEKNKILSLLNETKASFRRGGLEAGQTVIIGKRPMKGHGREIIQLGIPIVEGPPEDDYPRETKVE
notes: prey; AD fusion; output trait library
Regarding B1, the binding result in assay [1] is reported as “binds”.

B2: Novel Protein PN29118, Fragment, prey clone aa 1-136 (other)
chain: TSSGDQQMVTVAERFPREVSSEAVFRCVRLGPVDQAEAEVAYQTAVSIGGHVFKGILHDVGPEALAVAGGGGASEYHFRLTGDGSSPSTAAAGEAGSGGGGNIIVSSAVVMDPYPTPGPYGAFPAGTPFFHGHPRP
notes: prey; AD fusion; output trait library; also called OsPN29118
Turning to B2, in assay [2], the binding result was “binds”.

B3: Proline rich protein PN23221, prey clone aa 84-302 (other)
chain: PEPEPKPEPKPEPKPEPKPEPKPYPEPKPEPKPEPKPEPEPKPEPKPEPKPEPKPYPEPKPEPKPEPKPEPKPEPKPKPEPKPHPEPKPDPKPEPKPHPEPEPKPEPKPEPKPHPEPEPKPEPKPEPKPEPKPEPKPEPKPKPKPEPKPKPEPKPYPEPKPKPEPKPEPKPEPKPEPKPEPKPEPKPEPKPEPKPKPEPKPHPKPEPKPEPKPEPKPEP
notes: as for B1
As to B3, the binding result in assay [3] is “binds”.
